{
  "sequences": {"note": "By UniProt entry, the sequences of proteins in these tests, tags left out.", "UniProt Q07817, whole entry": "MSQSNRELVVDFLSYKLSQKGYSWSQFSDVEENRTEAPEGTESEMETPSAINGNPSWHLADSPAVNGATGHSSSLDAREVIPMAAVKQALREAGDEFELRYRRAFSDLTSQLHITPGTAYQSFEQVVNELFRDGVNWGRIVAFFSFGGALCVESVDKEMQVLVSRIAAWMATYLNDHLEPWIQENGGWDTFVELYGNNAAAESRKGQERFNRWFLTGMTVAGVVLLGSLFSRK"},
  "source": "patent US9115061B2",
  "about": "“Naphthalene-based inhibitors of anti-apoptotic proteins” (BURNHAM INSTITUTE FOR MEDICAL RESEARCH, priority 2007, dated 2015)",
  "molecular_target": "BCL-XL (Homo sapiens (Human), UniProt Q07817)",
  "assay": "1D 1H-NMR binding assay; note: key: +++: Very Active; ++: Active; +: Mild; −: Weak",
  "conditions": "4-point-rating scale; compounds 200 μM, BCL-XL 25 μM",
  "procedure": "By observing the aliphatic region of the spectra, binding could be readily detected due to chemical shift changes in active site methyl groups of Ile, Leu, Thr, Val or Ala (region between −0.8 and 0.3 ppm). All experiments were performed with a 600 MHz spectrometer Bruker Avance 600 equipped with four rf channels and z-axis pulse-field gradients.",
  "note": "For at least one compound, name, drawing or mass did not settle the structure.",
  "data": [
    {"smiles": "CCC(C)C(=O)c1c(O)c(O)cc2c(O)c(-c3c(C)cc4c(C(=O)C(C)CC)c(O)c(O)cc4c3O)c(C)cc12", "note": "(stereo not shown) [Compound XIX, 1,1′-(1,1′,6,6′,7,7′-hexahydroxy-3,3′-dimethyl-2,2′-binaphthyl-5,5′-diyl)bis(2-methylbutan-1-one)]", "values": [
      {"measurement": "1D 1H-NMR Binding Assay (BCL-XL)", "value": "+"}
    ]}
  ]
}
